These are yes or no findings as the source states them, for the method shown.
Target: Pseudomonas aeruginosa OprC (PA3790), wild type (P. aeruginosa PAO1) (UniProt G3XD89)
Test: SEC; OM-purified, functional OprC with azurin; no conditions given (told only in the discussion, no figure)

Sequences of proteins named here, by UniProt entry; tags and fusion partners are left off. Residues count along the entry.
UniProt G3XD89, residues 3-670: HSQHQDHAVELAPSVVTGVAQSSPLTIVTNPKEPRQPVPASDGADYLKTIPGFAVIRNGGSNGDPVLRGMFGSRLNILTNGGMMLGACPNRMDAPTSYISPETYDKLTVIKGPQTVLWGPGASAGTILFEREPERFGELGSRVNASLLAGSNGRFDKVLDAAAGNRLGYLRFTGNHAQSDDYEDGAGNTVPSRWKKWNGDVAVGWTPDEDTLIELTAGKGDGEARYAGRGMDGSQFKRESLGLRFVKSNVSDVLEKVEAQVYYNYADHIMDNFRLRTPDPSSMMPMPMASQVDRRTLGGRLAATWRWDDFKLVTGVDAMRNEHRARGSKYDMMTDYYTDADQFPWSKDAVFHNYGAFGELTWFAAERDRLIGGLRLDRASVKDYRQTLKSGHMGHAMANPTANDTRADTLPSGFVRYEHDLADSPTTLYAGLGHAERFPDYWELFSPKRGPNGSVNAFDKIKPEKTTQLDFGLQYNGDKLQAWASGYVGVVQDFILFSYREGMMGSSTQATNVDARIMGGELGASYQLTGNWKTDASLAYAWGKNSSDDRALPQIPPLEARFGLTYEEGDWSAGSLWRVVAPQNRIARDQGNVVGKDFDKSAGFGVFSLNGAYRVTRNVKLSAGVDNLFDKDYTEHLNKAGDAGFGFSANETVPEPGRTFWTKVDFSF
UniProt P00282, residues 21-148: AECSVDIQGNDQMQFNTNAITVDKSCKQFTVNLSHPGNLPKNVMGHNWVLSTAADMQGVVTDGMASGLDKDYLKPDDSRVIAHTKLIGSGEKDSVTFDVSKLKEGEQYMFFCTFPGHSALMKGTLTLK

azurin (from UniProt P00282 21-148) was tested, and the binding was “no binding”.
